# In article PMC10478313:
# By UniProt entry, the sequences of proteins in these tests, tags left out.
# UniProt Q15436: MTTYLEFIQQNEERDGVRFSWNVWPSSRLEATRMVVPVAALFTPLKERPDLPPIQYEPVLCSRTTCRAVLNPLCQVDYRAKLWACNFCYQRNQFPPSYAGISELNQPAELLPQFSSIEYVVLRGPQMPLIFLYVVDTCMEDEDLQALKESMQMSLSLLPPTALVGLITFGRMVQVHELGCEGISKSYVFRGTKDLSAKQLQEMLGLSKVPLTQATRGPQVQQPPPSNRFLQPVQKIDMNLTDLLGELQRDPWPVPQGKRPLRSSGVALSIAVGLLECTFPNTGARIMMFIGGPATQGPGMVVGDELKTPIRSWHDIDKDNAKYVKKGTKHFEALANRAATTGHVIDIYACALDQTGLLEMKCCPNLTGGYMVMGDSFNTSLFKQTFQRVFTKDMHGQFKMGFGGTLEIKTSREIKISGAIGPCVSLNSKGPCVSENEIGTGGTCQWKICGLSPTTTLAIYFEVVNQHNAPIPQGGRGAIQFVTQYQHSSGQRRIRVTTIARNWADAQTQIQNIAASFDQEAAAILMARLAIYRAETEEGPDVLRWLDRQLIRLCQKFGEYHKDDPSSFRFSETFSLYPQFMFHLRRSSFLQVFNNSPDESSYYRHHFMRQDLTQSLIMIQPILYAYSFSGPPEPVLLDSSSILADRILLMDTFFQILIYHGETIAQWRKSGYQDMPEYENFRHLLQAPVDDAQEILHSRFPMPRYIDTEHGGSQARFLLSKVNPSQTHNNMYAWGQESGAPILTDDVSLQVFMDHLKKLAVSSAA
# UniProt P07355: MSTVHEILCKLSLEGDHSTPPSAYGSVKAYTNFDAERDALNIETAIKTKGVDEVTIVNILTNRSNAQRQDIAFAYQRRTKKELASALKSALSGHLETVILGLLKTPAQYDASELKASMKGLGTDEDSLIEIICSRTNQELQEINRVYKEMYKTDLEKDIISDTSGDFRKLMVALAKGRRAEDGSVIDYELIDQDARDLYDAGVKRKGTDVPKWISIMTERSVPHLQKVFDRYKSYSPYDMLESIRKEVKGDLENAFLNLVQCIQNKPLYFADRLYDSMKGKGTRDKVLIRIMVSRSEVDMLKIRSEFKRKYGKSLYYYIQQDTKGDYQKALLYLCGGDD
# Results are given in words; binding and its absence hold for the method and conditions named. In cells and extracts the contact can be indirect. Here binding means that the protein was enriched with, or labelled near, the bait; the list need not be complete.
# Target: Sec23 homolog A (SEC23A) (human (endogenous in MKN45 and HGC27)) (UniProt Q15436)
# Assay: affinity purification with mass spectrometry; IP with anti-SEC23A antibody and IgG from MKN45 cells under ER stress; silver staining and mass spectrometry
substance,measurement,value
Annexin A2 (ANXA2) (from UniProt P07355 1-339),binding,binds
